Measurements: patent publication US8853274B1, “Compositions and methods for targeting glioblastomas cells” (Vanderbilt University, priority 2011, dated 2014)
For some of these results: At least one structure is not confirmed: it was looked up by name or label, or the drawing left a doubt. Some of these results come from one statement about several compounds together.

Assays:
prelamin A = test: Prelamin A immunoblot of intracranial tumors (farnesyltransferase inhibition marker); format: in vivo, Mice; conditions: oral, 7 days
GBM43 = test: Growth inhibition at day 5, spheroid GBM culture; format: cell-based, human; conditions: effects diminished after radiation
Procedure: (A) Known genetic features of selected GBM samples. WT: wild type; Amp: amplification; vIII: EGFRvIII; ND: not determined. (B) Spheroid GBM cultures were derived from freshly collected subcutaneous tumors and cultured for 2 weeks in stem cell media to enrich stem cell-like cancer cells. SF7225 was maintained as a primary spheroid culture. Growth inhibition at day 5 after treatment was determined as described in FIG. 5. *: p<0.01 by Student's t-test and growth inhibition ≧30% vs. the corresponding vehicle-treated groups. #: p<0.01 and >30% growth inhibition vs. the radiation only groups.
Work is now extended to a set of subcutaneous GBM xenografts (GBM) established by Dr. Jann Sarkaria and colleagues at Mayo Clinic. These samples are known to have mutational status of EGFR, p53 and PTEN and different radiosensitivity (FIG. 8A) (69-71). Because the cancer stem cell identity of CD133+ of the Mayo Clinic samples has not been validated by functional assays, the present inventor used the neurosphere culture that is widely utilized as a surrogate of GSCs for its ability to enrich GSC-like population (72, 73). Tumor response to GSI, FTI and/or radiation was determined as growth inhibition on day 5 after treatment, with a greater than 30% cell number reduction was defined as positive response mimicking the RECIST criteria (FIG. 8B). […]

GBM = conditions: phase II GBM trial (refs 47, 111); cited from earlier work
T4302 CD133+ cells = test: Cell growth / viability on day 5 (CellTiter-Glo); format: cell-based, human; conditions: 100 nM; with or without 3 Gy radiation
Procedure: (§1) (A, B) T4302 CD133+ cells were treated with 100 nM RO4929097 (GSI) and/or 100 nM tipifarnib (FTI) for 4 hours prior to 3 Gy radiation. (A) Cell growth on day 5 and (B) caspase 3/7 activation on day 3 were determined as described in FIG. 4. #: p<0.001 by one-way ANOVA, combo vs. single agents. (C) The effects of GSIs and FTI against growth of T4302 CD133− cells were determined as described in panel A. (D, E) T4302 CD133+ cells were treated with GSI, FTI, or a 1:1 mixture at different concentrations (ranging from 3000 nM to ˜0.5 nM, 1:3 dilution)±3 Gy radiation. Cell viability was determined at 5 days after treatment in comparison to vehicle-treated groups. […] (F) T4302 CD 133+ cells were treated by GSI±FTI with a 2-fold dilution. Neurospheres were countered on day 10, and normalized to the vehicle-treated group.
GSC sensitivity to drug(s) was primarily measured as inhibition of cell viability (survival). Cells were treated with drugs alone or in combination±3-Gy radiation at indicated concentrations. Cell viability is determined by CellTiter-Glo kit (Promega) after 5-day incubation. IC50 values are calculated by the GraphPad Prism5 software.

CD133+ GBM stem cells = test: Growth inhibition within 5 days, panel of glioblastoma xenograft samples; format: cell-based, human; conditions: 5-day period; without radiation
Procedure: CD133+ cells were derived from multiple glioblastoma xenograft samples as indicated. The growth inhibitory effects by GSI and/or FTIs were determined as described in FIG. 5.
Therefore, effective killing of GBM stem cells may delay or even prevent tumor recurrence. […] In combination with radiation, GSIs or FTIs alone reduced cell numbers by ˜75%.

Ras = test: Active Ras pull-down assay in T4302 CD133+ cells; format: cell-based, human; conditions: 200 nM; after radiation exposure
Procedure: (A) T4302 CD133+ cells were infected with NICD2-lentivirus and treated with 2 μM DAPT±3 Gy radiation. Cells were collected at 24 or 48 hours after treatment. Protein levels of phospho-s473 Akt, total Akt and actin were blotted. (B) Control CD133+ cells or NICD2-expressing cells were pre-treated with 10 μM PI3K inhibitor (LY294002), or 50 μM Akt inhibitor (SH-6) for 4 hours prior to radiation. Relative caspase 3/7 activity was determined at 48 hours after radiation as described in FIG. 3C. (C) T4302 CD133+ cells were treated with 200 nM RO4929097 (GSI)±3 Gy. Active Ras levels were determined by a Ras Pull Down Assay kit using a pan-Ras antibody (Pierce). (D, E) T4302 cells were infected with H-Ras V12-lentivirus. Cells were treated with 200 nM RO4929097 (GSI)±3 Gy. Growth of cells was determined at day 5 after treatment (CellTiter-Glo assay, Promega). Relative caspase 3/7 activity was determined at 48 hours after treatment. […] Equal amounts of protein were resolved by SDS-PAGE and analyzed by immunoblotting with indicated antibodies. *: p<0.05 by Student's t-test.
Potential mechanisms that mediate Notch-dependent Akt activation were examined next. […] Using an active Ras pull-down assay kit (Pierce), the activation status of Ras signaling can be determined as the amount of Ras-GTP co-purified with a GST-tagged Ras-binding domain of c-Raf. […]

[1] = system: T4302 CD133+ cells expressing RhoB shRNA; test: Growth, caspase and Akt phosphorylation in RhoB shRNA cells; format: cell-based, human; conditions: 100 nM, ±3 Gy
Procedure: (A) T4302 CD133+ cells were infected with lentivirus directing expression of a non-targeting shRNA or two RhoB specific shRNA. Cells were lysed for immunoblotting 3 days after infection. (B, C) Two days after infection, cells were selected with puromycin for two days, and plated in 96-well plates for growth curve assays. Cell growth was measured on days 1, 3 and 5 after plating, and normalized to the corresponding readout on day 1. (D-F) After lentiviral infection and puromycin selection as described above, T4302 CD133+ cells were treated with 100 nM GSI, FTI, ±3 Gy radiation and plated for subsequent experiments. (D) Relative growth on day 5, (E) caspase activation on day 3, and (F) protein levels on day 1 after treatment were determined as described in FIG. 4. *: p<0.001 by Student's t-test in comparison to the corresponding control groups.

T4302 CD133− cells = test: Growth / survival of non-stem GBM cells; format: cell-based, human; conditions: day 5
Procedure: as §1
Tumor cells are enzymatically dissociated from freshly collected subcutaneous xenograft tumors and cultured overnight before sorting. The CD133− and CD133+ fractions are separated either by magnetic sorting using the CD133 Microbead kit (Miltenyi Biotech), or labeled with APC-conjugated CD133 antibody (Miltenyi Biotech) and sorted by flow cytometry. CD133+ cells are maintained in neurobasal media supplemented with 2% B-27, 20 ng/ml EGF, and 20 ng/ml bFGF. […]

HIF1α and HIF2α = test: Immunoblot of HIF1α/HIF2α under hypoxia in T4302 CD133+ cells; format: cell-based, human; conditions: 200 nM 24 h, then 2% O2 16 h
Procedure: (A) T4302 CD133+ cells were treated with 200 nM RO4929097 (GSI), and irradiated 4 hours later. Cells were cultured for two days and lysed for immunoblotting. (B) T4302 CD133+ cells were treated with 200 nM GSI or FTI±radiation. Cells were lysed 2 days after treatment. (C) T4302 CD133+ cells were treated with 200 nM GSI±FTI for 24 hours, and left under normoxia or in 2% O2 for 16 hours before being lysed for immunoblotting.

Structure (SMILES) | accumulation of prelamin A in intracranial tumors (prelamin A) | tumor response (growth inhibition day 5), in words (GBM43) | clinical efficacy (GBM) | degree of growth inhibition after 5-day treatment, in words (T4302 CD133+ cells) | growth inhibition relative to the sham-treated groups (CD133+ GBM stem cells) | active Ras levels (Ras) | sensitivity of RhoB shRNA cells (growth day 5, caspase day 3) [1] | effect on growth of CD133− non-stem GBM cells (T4302 CD133− cells) | HIF1α and HIF2α levels upon hypoxia stimulation (HIF1α and HIF2α)
Cn1cncc1[C@@](N)(c1ccc(Cl)cc1)c1ccc2c(c1)c(-c1cccc(Cl)c1)cc(=O)n2C [tipifarnib] | significantly increased accumulation of prelamin A | moderate response | some efficacy | weaker growth inhibition | 50-70% | did not alter active Ras levels | insensitive | largely insensitive | moderate reduction
CC(C)(C(=O)NCC(F)(F)C(F)(F)F)C(=O)N[C@@H]1C(=O)Nc2ccccc2-c2ccccc21 [RO4929097] | – | – | – | – | 50-70% | – | – | – | –
